The target in this test is T1, His-tagged B56α (UniProt Q15172 1-486).
T1 construct: source: E. coli BL21 Rosetta2 (DE3) R3 T1, purified (Ni column, Superdex 200)
Nature of the test: SEC; 100 μg B56α incubated with 40 μg GST or GST-BRCA2 1089-1143 in 150 mM NaCl, 25 mM Tris 8.0, 10% glycerol, 1 mM DTT; Superdex 200 10/300; fractions on SDS-PAGE, Coomassie; both purified. (In general: In gel filtration, larger molecules generally elute earlier.)

Protein sequences, listed by entry. Tags and fused reporters are not part of them.
UniProt Q15172: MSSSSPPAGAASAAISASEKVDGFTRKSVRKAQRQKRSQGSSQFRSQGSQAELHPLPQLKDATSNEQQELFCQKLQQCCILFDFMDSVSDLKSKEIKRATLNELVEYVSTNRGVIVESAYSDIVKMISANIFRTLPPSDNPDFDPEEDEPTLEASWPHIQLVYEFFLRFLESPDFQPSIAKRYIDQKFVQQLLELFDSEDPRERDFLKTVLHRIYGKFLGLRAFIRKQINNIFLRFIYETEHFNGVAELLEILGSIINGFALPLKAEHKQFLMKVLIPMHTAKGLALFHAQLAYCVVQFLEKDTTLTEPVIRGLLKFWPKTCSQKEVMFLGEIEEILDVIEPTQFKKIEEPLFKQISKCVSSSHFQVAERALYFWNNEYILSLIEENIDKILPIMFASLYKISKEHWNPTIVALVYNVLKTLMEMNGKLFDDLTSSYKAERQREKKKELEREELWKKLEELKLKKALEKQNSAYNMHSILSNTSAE

These are yes or no findings as the source states them, for the method shown. Some binding calls cover weakened binding; strength is not graded here. Where a sequence is shown, tags or fusion partners need not be part of it.

B1: GST-BRCA2^1089–1143 WT (domain or fragment, UniProt P51587 1089-1143)
chain: QMLFSKQDFNSNHNLTPSQKAEITELSTILEESGSQFEFTQFRKPSYILQKSTFE
For B1, the binding result is listed as “binds”.

The values are drawn from PMC8484605, “A complex of BRCA2 and PP2A-B56 is required for DNA repair by homologous recombination” (Nature Communications, 2021).
